The results in this text go back to paper PMC7446885.

Results are given in words; binding and its absence hold for the method and conditions named. For some assays here: A result given as binding can be weak or reduced; the word gives no strength. Tags and fused reporters may be left off the sequences shown. For some assays here: In cells and extracts the contact can be indirect.

In experiment [1] the target is RxL21 with Leu389 mutated to Phe, yeast two-hybrid fusion (Hyaloperonospora arabidopsidis). As to the kind of experiment: two-hybrid; Gal4 AD-X (yeast Y8800) and DB-X (Y8930) fusions mated; growth on SC media lacking Leu, Trp and His (3AT for stringency) or also Ade; tested in both directions.
In experiment [2] the target is RxL21ΔRxLR (Δ1–51), yeast two-hybrid fusion (Hyaloperonospora arabidopsidis). The description is as above.
Experiment [3] has as its target RxL21ΔEAR1 (Δ402–409), yeast two-hybrid fusion (Hyaloperonospora arabidopsidis). The experiment is described as above.
Experiment [4] addresses RxL21ΔEAR2 (Δ360–409), yeast two-hybrid fusion (Hyaloperonospora arabidopsidis). The experiment is described as above.
Experiment [5] addresses Myc-tagged RxL21ΔEAR (Hyaloperonospora arabidopsidis). As to the kind of experiment: co-IP; transient co-expression in N. benthamiana leaves, RxL21 induced with 30 uM estradiol; sonicated nuclear lysate (10 mM Tris pH 7.5, 150 mM NaCl, 0.5% Igepal, 4 C); anti-c-myc magnetic microbeads, blot with anti-HA.

B1: TOPLESS (TPL) of Arabidopsis, yeast two-hybrid fusion (protein, UniProt Q94AI7 1-1131)
chain: MSSLSRELVFLILQFLDEEKFKETVHKLEQESGFFFNMKYFEDEVHNGNWDEVEKYLSGFTKVDDNRYSMKIFFEIRKQKYLEALDKHDRPKAVDILVKDLKVFSTFNEELFKEITQLLTLENFRENEQLSKYGDTKSARAIMLVELKKLIEANPLFRDKLQFPTLRNSRLRTLINQSLNWQHQLCKNPRPNPDIKTLFVDHSCGPPNGARAPSPVNNPLLGGIPKAGGFPPLGAHGPFQPTASPVPTPLAGWMSSPSSVPHPAVSAGAIALGGPSIPAALKHPRTPPTNASLDYPSADSEHVSKRTRPMGISDEVNLGVNMLPMSFSGQAHGHSPAFKAPDDLPKTVARTLSQGSSPMSMDFHPIKQTLLLVGTNVGDIGLWEVGSRERLVQKTFKVWDLSKCSMPLQAALVKEPVVSVNRVIWSPDGSLFGVAYSRHIVQLYSYHGGEDMRQHLEIDAHVGGVNDISFSTPNKQLCVITCGDDKTIKVWDAATGVKRHTFEGHEAPVYSVCPHYKENIQFIFSTALDGKIKAWLYDNMGSRVDYDAPGRWCTTMAYSADGTRLFSCGTSKDGESFIVEWNESEGAVKRTYQGFHKRSLGVVQFDTTKNRYLAAGDDFSIKFWDMDAVQLLTAIDGDGGLQASPRIRFNKEGSLLAVSGNENVIKIMANSDGLRLLHTFENISSESSKPAINSIAAAAAAAATSAGHADRSANVVSIQGMNGDSRNMVDVKPVITEESNDKSKIWKLTEVSEPSQCRSLRLPENLRVAKISRLIFTNSGNAILALASNAIHLLWKWQRNERNATGKATASLPPQQWQPASGILMTNDVAETNPEEAVPCFALSKNDSYVMSASGGKISLFNMMTFKTMATFMPPPPAATFLAFHPQDNNIIAIGMDDSTIQIYNVRVDEVKSKLKGHSKRITGLAFSNVLNVLVSSGADAQLCVWNTDGWEKQRSKVLPLPQGRPNSAPSDTRVQFHQDQAHFLVVHETQLAIYETTKLECMKQWAVRESLAPITHATFSCDSQLVYASFMDATVCVFSSANLRLRCRVNPSAYLPASLSNSNVHPLVIAAHPQEPNMFAVGLSDGGVHIFEPLESEGKWGVAPPAENGSASGAPTAPSVGASASDQPQR
In the case of B1, the binding result in experiment [1] is “no binding”; in experiment [2], “binds”; in experiment [3] it was “no binding”; in experiment [4], “no binding”.

B2: TPL-HA (protein, UniProt Q94AI7 1-1131)
chain: MSSLSRELVFLILQFLDEEKFKETVHKLEQESGFFFNMKYFEDEVHNGNWDEVEKYLSGFTKVDDNRYSMKIFFEIRKQKYLEALDKHDRPKAVDILVKDLKVFSTFNEELFKEITQLLTLENFRENEQLSKYGDTKSARAIMLVELKKLIEANPLFRDKLQFPTLRNSRLRTLINQSLNWQHQLCKNPRPNPDIKTLFVDHSCGPPNGARAPSPVNNPLLGGIPKAGGFPPLGAHGPFQPTASPVPTPLAGWMSSPSSVPHPAVSAGAIALGGPSIPAALKHPRTPPTNASLDYPSADSEHVSKRTRPMGISDEVNLGVNMLPMSFSGQAHGHSPAFKAPDDLPKTVARTLSQGSSPMSMDFHPIKQTLLLVGTNVGDIGLWEVGSRERLVQKTFKVWDLSKCSMPLQAALVKEPVVSVNRVIWSPDGSLFGVAYSRHIVQLYSYHGGEDMRQHLEIDAHVGGVNDISFSTPNKQLCVITCGDDKTIKVWDAATGVKRHTFEGHEAPVYSVCPHYKENIQFIFSTALDGKIKAWLYDNMGSRVDYDAPGRWCTTMAYSADGTRLFSCGTSKDGESFIVEWNESEGAVKRTYQGFHKRSLGVVQFDTTKNRYLAAGDDFSIKFWDMDAVQLLTAIDGDGGLQASPRIRFNKEGSLLAVSGNENVIKIMANSDGLRLLHTFENISSESSKPAINSIAAAAAAAATSAGHADRSANVVSIQGMNGDSRNMVDVKPVITEESNDKSKIWKLTEVSEPSQCRSLRLPENLRVAKISRLIFTNSGNAILALASNAIHLLWKWQRNERNATGKATASLPPQQWQPASGILMTNDVAETNPEEAVPCFALSKNDSYVMSASGGKISLFNMMTFKTMATFMPPPPAATFLAFHPQDNNIIAIGMDDSTIQIYNVRVDEVKSKLKGHSKRITGLAFSNVLNVLVSSGADAQLCVWNTDGWEKQRSKVLPLPQGRPNSAPSDTRVQFHQDQAHFLVVHETQLAIYETTKLECMKQWAVRESLAPITHATFSCDSQLVYASFMDATVCVFSSANLRLRCRVNPSAYLPASLSNSNVHPLVIAAHPQEPNMFAVGLSDGGVHIFEPLESEGKWGVAPPAENGSASGAPTAPSVGASASDQPQR
For the molecule B2, the binding entry in experiment [5] is recorded as “no binding”.
